The test concerns P388 leukemia ip, CD2F1 mice, survival T/C. Put plainly: NCI In Vivo Anticancer Drug Screen. Data for tumor model P388 Leukemia (intraperitoneal) in CD2F1 (CDF1) mice. As to conditions: T/C endpoint: median survival time, schedule: Q01DX009 (ip), higher T/C = longer survival.
The mark [1] stands for this setting: dose: 0.31 mg/kg/injection, vehicle: saline + alcohol.
Setting [2] is: dose: 0.63 mg/kg/injection, vehicle: saline + alcohol.
[3] abbreviates: dose: 1.25 mg/kg/injection, vehicle: saline + alcohol.
Where [4] appears, read: dose: 0.5 mg/kg/injection, vehicle: saline + alcohol.
Where [5] appears, read: dose: 1.0 mg/kg/injection, vehicle: saline + alcohol.
Setting [6] is: dose: 2.0 mg/kg/injection, vehicle: saline + alcohol.
The mark [7] stands for this setting: dose: 4.0 mg/kg/injection, vehicle: saline + alcohol.

This passage reports T/C results from PubChem BioAssay AID330 (DTP/NCI, 2004).

The list is a part of this screen's results and no random one: its compounds were picked by chemical class. Other doses and runs of a compound may be missing. T/C: endpoint of the treated group in % of that of the vehicle group. Where survival is the endpoint, this PubChem deposit counts one and a half times the control or more as active, and values a quarter to a half above the control carry no call in these data; other NCI protocols may use other cut-offs. Schedules are NCI's codes, taken here to give the interval after Q, in days (D) or hours (H), and the number of doses after X. Some T/C values are marked as having no survivor count here; that says nothing about deaths at the dose. Some doses were run more than once; the values are given in rising order.

In the case of `C[C@@H](O)[C@H]1/C=C/C=C\C(=O)O[C@@H]2C[C@H]3O[C@@H]4[C@@H]5OC5(C)CCC4(COC(=O)[C@H]4O[C@]4(C)[C@@H](O)CO1)[C@]2(C)[C@]31CO1` (stereo partly specified), the T/C is, setting by setting: (dose: 0.15 mg/kg/injection, vehicle: saline + alcohol) 193 % of control [survivor count not shown]; under setting [1], 148 [survivor count not shown] and 194 % of control [survivor count not shown]; (dose: 0.62 mg/kg/injection, vehicle: saline + alcohol) 157 [survivor count not shown] and 186 % of control [survivor count not shown]; under setting [2], 145 % of control [survivor count not shown]; under setting [3], 155 [survivor count not shown], 191 [survivor count not shown], 194 % of control [survivor count not shown]; (dose: 2.5 mg/kg/injection, vehicle: Klucel (hydroxypropylcellulose) (HPC)) 169 % of control [survivor count not shown]. The T/C was 172 [survivor count not shown], 192 [survivor count not shown], 225 % of control [survivor count not shown] (dose: 2.5 mg/kg/injection, vehicle: saline + alcohol); 182 % of control [survivor count not shown] (dose: 5.0 mg/kg/injection, vehicle: Klucel (hydroxypropylcellulose) (HPC)); 195 [survivor count not shown], 203 [survivor count not shown], 215 % of control [survivor count not shown] (dose: 5.0 mg/kg/injection, vehicle: saline + alcohol); 102 % of control [survivor count not shown] (dose: 10.0 mg/kg/injection, vehicle: Klucel (hydroxypropylcellulose) (HPC)); 311 % of control [survivor count not shown] (dose: 10.0 mg/kg/injection, vehicle: saline + alcohol); 196 % of control [survivor count not shown] (dose: 20.0 mg/kg/injection, vehicle: saline + alcohol).
`C/C1=C\C(=O)OCC23CCC4(C)OC4C2OC2CC(OC(=O)/C=C/C=C/C(=O)OCC1)C3(C)C21CO1` (stereo unspecified): the T/C is, setting by setting: under setting [4], 125 [survivor count not shown] and 145 % of control [survivor count not shown]; under setting [5], 125 [survivor count not shown] and 148 % of control [survivor count not shown]; under setting [6], 137 [survivor count not shown] and 145 % of control [survivor count not shown]; under setting [7], 154 [survivor count not shown] and 157 % of control [survivor count not shown]; (dose: 8.0 mg/kg/injection, vehicle: saline + alcohol) 158 [survivor count not shown] and 172 % of control [survivor count not shown]; (dose: 16.0 mg/kg/injection, vehicle: saline + alcohol) 99 [survivor count not shown] and 157 % of control [survivor count not shown].
Regarding `CC(=O)OC[C@]12C[C@H](OC(=O)CC(C)C)C(C)=C[C@H]1O[C@@H]1[C@H](O)[C@@H](O)[C@@]2(C)[C@@]12CO2`, the T/C by setting is: (dose: 0.25 mg/kg/injection, vehicle: saline) 159 % of control [survivor count not shown]; (dose: 0.5 mg/kg/injection, vehicle: saline) 133 [survivor count not shown], 170 [survivor count not shown], 192 % of control [survivor count not shown]; (dose: 1.0 mg/kg/injection, vehicle: saline) 147 [survivor count not shown], 167 [survivor count not shown], 230 % of control [survivor count not shown]; (dose: 2.0 mg/kg/injection, vehicle: saline) 146 [survivor count not shown] and 147 % of control [survivor count not shown].
Regarding `CC1=CC2OC3CC4OC(=O)/C=C/C=C/C(=O)OCCC(C)C(O)C(=O)OCC2(CC1=O)C4(C)C31CO1` (stereo unspecified), the T/C by setting is: (dose: 0.16 mg/kg/injection, vehicle: saline + alcohol) 111 % of control [survivor count not shown]; under setting [1], 120 % of control [survivor count not shown]; under setting [2], 112 % of control [survivor count not shown]; under setting [3], 122 % of control [survivor count not shown].
Take `CC(=O)OC[C@]12CCC(C)=C[C@H]1O[C@H]1C(=O)[C@@H](OC(C)=O)[C@@]2(C)[C@]12CO2`: the T/C by setting is: under setting [4], 141 [survivor count not shown] and 151 % of control [survivor count not shown]; under setting [5], 147 [survivor count not shown] and 156 % of control [survivor count not shown]; under setting [6], 181 [survivor count not shown] and 184 % of control [survivor count not shown]; under setting [7], 192 % of control [survivor count not shown].
`CC(=O)OC[C@]12CCC(C)=C[C@H]1O[C@@H]1[C@H](O)[C@@H](OC(C)=O)[C@@]2(C)[C@@]12CO2`: the T/C (dose: 0.18 mg/kg/injection, vehicle: Klucel (hydroxypropylcellulose) (HPC)) is 135 % of control [survivor count not shown]; the T/C (dose: 0.37 mg/kg/injection, vehicle: Klucel (hydroxypropylcellulose) (HPC)) was 142 % of control [survivor count not shown]; the T/C (dose: 0.75 mg/kg/injection, vehicle: Klucel (hydroxypropylcellulose) (HPC)) was 143 % of control [survivor count not shown]; the T/C (dose: 1.5 mg/kg/injection, vehicle: Klucel (hydroxypropylcellulose) (HPC)) was 138 % of control [survivor count not shown]; the T/C (dose: 3.0 mg/kg/injection, vehicle: Klucel (hydroxypropylcellulose) (HPC)) is 155 % of control [survivor count not shown]; the T/C (dose: 6.0 mg/kg/injection, vehicle: Klucel (hydroxypropylcellulose) (HPC)) was 95 % of control [survivor count not shown].
In the case of `CC(=O)O[C@@H]1[C@@H](O)[C@H]2O[C@@H]3C=C(C)C(=O)[C@@H](O)[C@]3(CO)[C@]1(C)[C@]21CO1`, the T/C runs as follows: (dose: 0.2 mg/kg/injection, vehicle: saline) 107 % of control [survivor count not shown]; (dose: 0.4 mg/kg/injection, vehicle: saline) 109 % of control [survivor count not shown]; (dose: 0.8 mg/kg/injection, vehicle: saline) 119 % of control [survivor count not shown]; (dose: 1.6 mg/kg/injection, vehicle: saline) 127 % of control [survivor count not shown].
In the case of `CC1=CC2OC3C(OC4CCCCO4)C(O)C(C)(C2(CO)CC1)C31CO1` (stereo unspecified), the T/C is 103 % of control [survivor count not shown] (dose: 0.2 mg/kg/injection, vehicle: other); 100 % of control [survivor count not shown] (dose: 0.4 mg/kg/injection, vehicle: other); 107 % of control [survivor count not shown] (dose: 0.8 mg/kg/injection, vehicle: other); 108 % of control [survivor count not shown] (dose: 1.6 mg/kg/injection, vehicle: other); 98 % of control [survivor count not shown] (dose: 3.2 mg/kg/injection, vehicle: other); 107 % of control [survivor count not shown] (dose: 6.4 mg/kg/injection, vehicle: other).
